# Experimental data as given in PMC11117858.
# Protein sequences, listed by entry. Tags and fused reporters are not part of them. Residues count along the entry.
# UniProt Q9NZQ7, 19-290: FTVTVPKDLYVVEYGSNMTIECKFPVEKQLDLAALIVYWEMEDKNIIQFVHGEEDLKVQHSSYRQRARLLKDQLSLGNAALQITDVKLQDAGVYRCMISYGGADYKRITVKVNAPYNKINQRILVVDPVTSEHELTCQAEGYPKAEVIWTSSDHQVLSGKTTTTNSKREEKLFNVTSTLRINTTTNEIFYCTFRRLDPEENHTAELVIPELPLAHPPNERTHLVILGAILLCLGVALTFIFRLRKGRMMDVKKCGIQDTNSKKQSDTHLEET
# UniProt P08962, 2-238: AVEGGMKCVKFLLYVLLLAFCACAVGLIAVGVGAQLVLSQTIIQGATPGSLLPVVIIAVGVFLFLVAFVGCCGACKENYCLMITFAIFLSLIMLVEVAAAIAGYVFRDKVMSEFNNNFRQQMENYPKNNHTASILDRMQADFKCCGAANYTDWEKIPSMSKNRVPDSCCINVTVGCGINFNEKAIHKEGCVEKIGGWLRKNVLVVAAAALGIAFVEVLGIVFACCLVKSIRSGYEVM
# What was measured:
# PD-L1 on A549 exosomes = PD-L1 on A549 exosomes (UniProt Q9NZQ7); assay: proximity ligation/RCA/TR-FRET on exosomes; details: 10 nM aptamer with Cho primer, assay LOD 0.77 ng/uL; 1x PBS, 5 mM MgCl2, 0.2% BSA (w/v), 37 C, 1 h; exosome-coated microspheres blocked with glycine/BSA; pH not stated; native protein; single-stranded DNA
# HER2 on A549 exosomes = HER2 on A549 exosomes (UniProt P04626); assay: proximity ligation/RCA/TR-FRET on exosomes; details: 10 nM aptamer with Cho primer, assay LOD 1.1 ng/uL; 1x PBS, 5 mM MgCl2, 0.2% BSA (w/v), 37 C, 1 h; exosome-coated microspheres blocked with glycine/BSA; pH not stated; native protein; single-stranded DNA
# CD63 on SH-SY5Y exosomes [1] = target: CD63 on SH-SY5Y exosomes (UniProt P08962); assay: proximity ligation/RCA/TR-FRET on exosomes; details: 10 nM aptamer with Cho primer, assay LOD 0.46 ng/uL exosomes in buffer, 1.56 in FBS; 1x PBS, 5 mM MgCl2, 0.2% BSA (w/v), 37 C, 1 h; exosome-coated microspheres blocked with glycine/BSA; pH not stated; native protein; single-stranded DNA
# CD63 on SH-SY5Y exosomes [2] = target: CD63 on SH-SY5Y exosomes (UniProt P08962); assay: flow cytometry on exosome-coated microspheres; details: random-sequence control, 5 mM Mg2+; 1x PBS, 5 mM MgCl2, 0.2% BSA (w/v), 37 C, 1 h; exosome-coated microspheres blocked with glycine/BSA; pH not stated; native protein; label: 5' Cy5; single-stranded DNA
sequence,measurement,setting,value
ACGGGCCACATCAACTCATTGATAGACAATGCGTCCACTGCCCGTTTTTTTTTTTTTTTGACGCTAATAGTTAAGACGCT [Apt-PD-L1],binding result,PD-L1 on A549 exosomes,binds
TCTAAAAGGATTCTTCCCAAGGGGATCCAATTCAAACAGCTTTTTTTTTTTTTTTGACGCTAATAGTTAAGACGCT [Apt-HER2],binding result,HER2 on A549 exosomes,binds
ATATACACCCCACCTCGCTCCCGTGACACTAATGCTATTTTTTTTTTTTTTTGACGCTAATAGTTAAGACGCTT [Apt-CD63],binding result,CD63 on SH-SY5Y exosomes [1],binds
CTTTTCGGGATTTATGC [MU-Cy5],binding result,CD63 on SH-SY5Y exosomes [2],no binding

# For some of these results: A negative result means that nothing was seen under these conditions. At least one verdict was read from the data and is not stated in words by the source. For some of these results: For at least one entry, the source does not settle the construct or the ends of the probe.
